# Laboratory results reported in PubChem BioAssay AID588590 (National Center for Advancing Translational Sciences (NCATS), 2011).
# Sequences of proteins named here, by UniProt entry; tags and fusion partners are left off. A change or cut given only in a name is not applied to a line headed by its entry.
# UniProt Q9UNA4: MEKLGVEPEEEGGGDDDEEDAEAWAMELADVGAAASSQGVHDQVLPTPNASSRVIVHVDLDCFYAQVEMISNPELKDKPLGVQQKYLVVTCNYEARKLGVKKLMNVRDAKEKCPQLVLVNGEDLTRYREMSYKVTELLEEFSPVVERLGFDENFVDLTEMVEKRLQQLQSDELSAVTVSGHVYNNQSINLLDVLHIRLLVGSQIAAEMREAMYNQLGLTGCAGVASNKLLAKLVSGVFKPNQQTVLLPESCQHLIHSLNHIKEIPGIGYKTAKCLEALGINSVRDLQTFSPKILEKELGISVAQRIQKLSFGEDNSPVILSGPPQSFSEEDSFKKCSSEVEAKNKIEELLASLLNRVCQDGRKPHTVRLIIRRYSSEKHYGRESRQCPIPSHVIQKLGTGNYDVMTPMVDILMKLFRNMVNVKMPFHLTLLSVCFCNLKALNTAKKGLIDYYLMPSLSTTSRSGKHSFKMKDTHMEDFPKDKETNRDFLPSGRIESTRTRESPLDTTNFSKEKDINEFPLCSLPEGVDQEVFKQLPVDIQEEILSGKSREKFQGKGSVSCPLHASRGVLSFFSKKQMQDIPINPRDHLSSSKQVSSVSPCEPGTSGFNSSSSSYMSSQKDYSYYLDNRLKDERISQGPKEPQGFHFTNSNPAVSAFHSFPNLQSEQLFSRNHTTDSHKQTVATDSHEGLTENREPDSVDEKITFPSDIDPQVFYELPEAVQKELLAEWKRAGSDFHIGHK
# The campaign covered roughly 390,000 compounds. About 4,000 (1%) were called active. The inconclusive results got no clear call from the source; some entries with a clear call stand among them for comparison. Calls come from the whole dose curve; as a rule, active = well fitted inhibition curve with a large enough effect; inconclusive = small, poorly fitted or top-dose-only effect, or another doubt; inactive = no such curve, though single readings can be large or run the other way. Potencies of inconclusive entries are doubtful fits and often do not repeat.
# Target: DNA polymerase iota (Homo sapiens) (UniProt Q9UNA4)
# Test: qHTS for Inhibitors of Polymerase Iota
# Conditions: Pol iota fluorescent replication assay, 10 min; series mostly up to 115 µM
# Procedure, shortened: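 Fluorescent replication assay read twice, at 0 min and 10 min after adding 50 nM (final) substrate. Enzyme (10 nM) and compounds were first incubated 15 min at room temperature; enzyme-free buffer wells were negative controls.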
# Potency is the fitted concentration of half-maximal effect.
row,Compound,Potency
1,CCCNC(=O)Cn1nc(-c2ccc(OC)cc2)c2cnc3ccc(F)cc3c21,"inconclusive: 89.1 µM [inhibitor, single point]"
2,COc1ccc(/[N+]([O-])=C/c2ccco2)cc1,"inconclusive: 25.1 µM [inhibitor, single point]"
3,CC(C)=CCN1CCN(Cc2ccc(Oc3ncccn3)cc2)CC1CCO (stereo unspecified),"inconclusive: 100 µM [inhibitor, single point]"
4,CCC(CO)n1c(SCc2cc([N+](=O)[O-])cc3c2OCOC3)nc2ccccc2c1=O (stereo unspecified),inactive
5,CC(=O)Nc1nnc(S(=O)(=O)N2CCN(c3ccc(Cl)cc3[N+](=O)[O-])CC2)s1,"inconclusive: 31.6 µM [inhibitor, partial curve]"
6,CC(C)CN1CCN(Cc2cc(F)ccc2-n2cccn2)CC1CCO (stereo unspecified),"inconclusive: 44.7 µM [inhibitor, partial curve, poor fit]"
7,CCC1CCCCN1C(=O)c1c[nH]c2ccc(S(=O)(=O)Nc3cccc(OC)c3)cc2c1=O (stereo unspecified),"inconclusive: 89.1 µM [inhibitor, partial curve, poor fit]"
8,Nc1c(C(=O)NCc2cccs2)nnn1CC(=O)Nc1cccc(F)c1,"inconclusive: 89.1 µM [inhibitor, partial curve, poor fit]"
9,Nc1ccc2c(c1)C(=O)N(CCCCCC(=O)O)C2,"inconclusive: 112 µM [inhibitor, partial curve, poor fit]"
10,COc1ccc(NC(=O)Nc2ccc3c(c2)C(=O)N([C@H](C)CO)C[C@H](C)[C@@H](CN(C)C(=O)Nc2ccccc2)O3)cc1,"inconclusive: 56.2 µM [inhibitor, partial curve, poor fit]"
11,O=C(Nc1csnn1)OCc1ccccc1,inactive
12,N#C/C(=C\c1c[nH]c2ccccc12)C(=O)Nc1ncc(Cc2ccc(Cl)cc2Cl)s1,inactive
13,C=CCn1c(SCC(=O)c2cc(C)n(C(C)COC)c2C)nc2sc(C)c(C)c2c1=O (stereo unspecified),"inconclusive: 14.1 µM [inhibitor, partial curve, poor fit]"
14,CCOc1ccccc1NS(=O)(=O)c1cc2[nH]c(=O)c(=O)[nH]c2cc1C,inactive
15,COc1ccc(NS(=O)(=O)c2ccc(NC(=S)NC(=O)/C=C/c3ccc(C)cc3)cc2)nn1,"inconclusive: 14.1 µM [inhibitor, full curve, poor fit]"
16,Cc1ccc(C(=O)CSC2=C(C#N)C(c3ccco3)CC(=O)N2)c(C)c1 (stereo unspecified),active: 17.8 µM
17,Cc1cccc(-n2c(Cc3cc(=O)[nH]c(=O)[nH]3)nnc2SCC(=O)Nc2cccc(C(F)(F)F)c2)c1,"inconclusive: 50.1 µM [inhibitor, partial curve, poor fit]"
18,Cc1cccc(C(=O)n2nc(C)c(S(=O)(=O)N3CCOCC3)c2C)c1,"inconclusive: 89.1 µM [inhibitor, single point]"
19,COC(=O)N/N=C(C)\C=C\c1ccco1,"inconclusive: 0.708 µM [inhibitor, full curve, poor fit]"
20,CC[C@@]1(O)C(=O)OCc2c1cc1n(c2=O)Cc2cc3c(CN(C)C)c(O)ccc3nc2-1,"inconclusive: 79.4 µM [inhibitor, partial curve]"
21,O=c1oc2cc(Oc3c([N+](=O)[O-])cc(C(F)(F)F)cc3[N+](=O)[O-])ccc2c2c1CCCC2,"inconclusive: 31.6 µM [inhibitor, partial curve, poor fit]"

# No new results follow: entries from further up.
row,Compound,Potency
2,COc1ccc(/[N+]([O-])=C/c2ccco2)cc1,"inconclusive: 25.1 µM [inhibitor, single point]"
3,CC(C)=CCN1CCN(Cc2ccc(Oc3ncccn3)cc2)CC1CCO (stereo unspecified),"inconclusive: 100 µM [inhibitor, single point]"
4,CCC(CO)n1c(SCc2cc([N+](=O)[O-])cc3c2OCOC3)nc2ccccc2c1=O (stereo unspecified),inactive

# The results go on:

row,Compound,Potency
1,CC1(C)CC(=O)C2=C(C1)N(c1ccc(F)cc1)C(N)=C(C#N)C2c1cccs1 (stereo unspecified),inactive
2,O=C(Nc1cccc(Cl)c1)N1CC2CCCN2c2ccccc21 (stereo unspecified),inactive
3,c1ccc(OCCOCCSc2ncccn2)cc1,"inconclusive: 89.1 µM [inhibitor, partial curve, poor fit]"
4,CC(=O)c1ccc(NC(=O)c2cc(Cl)sc2Cl)cc1,"inconclusive: 112 µM [inhibitor, single point]"
5,Cc1ccc(S(=O)(=O)N2CCCC2)cc1C(=O)N1CCC(C)CC1,inactive
6,COc1ccccc1/C=C/C=N/n1c(-c2n[nH]c3c2CCC3)n[nH]c1=S,inactive
7,O=c1oc(Nc2ccc(F)cc2)nc2ccccc12,"inconclusive: 39.8 µM [inhibitor, single point]"
8,O=S(=O)(NCC(c1cccs1)S(=O)(=O)c1ccccc1)c1ccccc1 (stereo unspecified),"inconclusive: 17.8 µM [inhibitor, partial curve, poor fit]"
9,N#CCCCN1C(=O)C(=C(C#N)C#N)c2ccccc21,"inconclusive: 35.5 µM [inhibitor, single point]"
10,CCOc1ccc(-n2c(SCC(=O)NCc3ccccc3)nc3n[nH]c(C)c3c2=N)cc1,"inconclusive: 56.2 µM [inhibitor, partial curve, poor fit]"
11,CC[C@]12C(=O)N(C)C[C@H]([C@@H]3C(=O)N(C)C(=O)[C@@H]31)N2C(=O)c1ccc(C)cc1,"inconclusive: 89.1 µM [inhibitor, single point]"
12,Nc1scc(-c2ccncc2)c1Cl,"inconclusive: 14.1 µM [inhibitor, single point]"
13,CCOc1ccccc1CNC(=O)c1ccc(-n2c(C)cc3c2CCC(C)C3)cc1 (stereo unspecified),inactive
14,CC(=O)c1cccc(NC(=O)c2cccc(NC(=O)c3ccco3)c2)c1,"inconclusive: 39.8 µM [inhibitor, single point]"
15,O=C(N/N=C/c1ccco1)c1cnccn1,"inconclusive: 56.2 µM [inhibitor, partial curve, poor fit]"
16,Cn1nc(-c2cccnc2)nc2c(=O)n(C)c(=O)nc1-2,inactive
17,CCCCC(CC)CO (stereo unspecified),"inconclusive: 14.1 µM [inhibitor, partial curve, poor fit]"
18,O=C(COc1ccc(Cl)cc1Cl)Nc1ccc(C(=O)Nc2ccccc2C(=O)O)cc1,"inconclusive: 28.2 µM [inhibitor, single point]"
19,CCCOc1ccc(Cc2nn[nH]n2)cc1,"inconclusive: 39.8 µM [inhibitor, single point]"
20,COc1ccc(-c2csc(NC(=O)c3ccco3)n2)cc1,"inconclusive: 1 µM [inhibitor, partial curve, poor fit]"
